# Experimental data from PubChem BioAssay AID192 (DTP/NCI, 2004).
# The list is a part of this screen's results and no random one: it is rich in T/C values a quarter to a half above the control, in often repeated tests (any T/C) and in doses without a T/C. Other doses and runs of a compound stand elsewhere. T/C is the treated group as % of the vehicle group. Some doses have a count of surviving animals in place of a T/C: the source files T/C as zero there, which appears to mark a toxic dose or a test without result, not a measured value. Some survivor counts are full or nearly so, which does not show that the dose was tolerated: survival well below the control is almost never listed, so the zero probably covers shortened survival too. Counts of survivors are from the toxicity check (mostly the fifth day) where no day follows; animals may have died later. Schedules are NCI's codes, read here as Q, the interval in days (D) or hours (H), X, the number of doses. Where survival is the endpoint, the PubChem record calls one and a half times the control and up active, and a quarter to a half above the control has no call in these data; cut-offs in other NCI protocols can differ. Some entries were tested several times; the results are listed from low to high. Some T/C values carry the count of animals alive at the toxicity check (mostly the fifth day); without a count, all were alive then.
# Test system: BDF1 mice, B16 melanoma ip, median survival T/C
# Assay: NCI In Vivo Anticancer Drug Screen. Data for tumor model B16 Melanoma (intraperitoneal) in B6D2F1 (BDF1) mice
# Settings: T/C endpoint: median survival time, higher T/C = longer survival
# In short: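 Values are ratios of treated (T) to vehicle-control (C) measurements of survival or tumor size in tumor-bearing mice.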
# [1] = dose: 0.78 mg/kg/injection, schedule: Q01DX009 (ip), vehicle: Klucel (hydroxypropylcellulose) (HPC)
# [2] = dose: 50.0 mg/kg/injection, schedule: Q01DX009 (ip), vehicle: saline
# [3] = dose: 100.0 mg/kg/injection, schedule: Q01DX009 (ip), vehicle: saline
# [4] = dose: 100.0 mg/kg/injection, schedule: Q01DX009 (ip), vehicle: saline with Tween-80
# [5] = dose: 200.0 mg/kg/injection, schedule: Q01DX009 (ip), vehicle: saline with Tween-80
# [6] = dose: 400.0 mg/kg/injection, schedule: Q01DX009 (ip), vehicle: saline with Tween-80
# [7] = dose: 50.0 mg/kg/injection, schedule: Q01DX009 (ip), vehicle: Klucel (hydroxypropylcellulose) (HPC)
# [8] = dose: 200.0 mg/kg/injection, schedule: Q01DX009 (ip), vehicle: Klucel (hydroxypropylcellulose) (HPC)
smiles,measurement,setting,value
CN1C(=O)CCS(=O)(=O)C1c1ccc(Cl)cc1 (centres undefined),survivor count,"dose: 0.09 mg/kg/injection, schedule: Q01DX009 (ip), vehicle: Klucel (hydroxypropylcellulose) (HPC)",10 of 10
same,survivor count,"dose: 0.19 mg/kg/injection, schedule: Q01DX009 (ip), vehicle: Klucel (hydroxypropylcellulose) (HPC)",10 of 10
same,survivor count,"dose: 0.39 mg/kg/injection, schedule: Q01DX009 (ip), vehicle: Klucel (hydroxypropylcellulose) (HPC)",10 of 10
same,T/C,[1],140 % of control
same,survivor count,[1],10 of 10
same,survivor count,"dose: 1.56 mg/kg/injection, schedule: Q01DX009 (ip), vehicle: Klucel (hydroxypropylcellulose) (HPC)",10 of 10
CC(=O)Nc1cc(N(CCOS(C)(=O)=O)CCOS(C)(=O)=O)ccc1N=O,survivor count,"dose: 0.12 mg/kg/injection, schedule: Q01DX009 (ip), vehicle: saline",10 of 10
same,survivor count,"dose: 0.25 mg/kg/injection, schedule: Q01DX009 (ip), vehicle: saline",10 of 10
same,survivor count,"dose: 0.5 mg/kg/injection, schedule: Q01DX009 (ip), vehicle: saline",10 of 10
same,survivor count,"dose: 0.62 mg/kg/injection, schedule: Q04DX003 (ip), vehicle: saline with Tween-80",10 of 10
same,survivor count,"dose: 1.0 mg/kg/injection, schedule: Q01DX009 (ip), vehicle: saline",3 of 10
same,survivor count,"dose: 1.25 mg/kg/injection, schedule: Q04DX003 (ip), vehicle: saline with Tween-80",10 of 10
same,survivor count,"dose: 2.5 mg/kg/injection, schedule: Q04DX003 (ip), vehicle: saline with Tween-80",8 of 10
same,survivor count,"dose: 5.0 mg/kg/injection, schedule: Q04DX003 (ip), vehicle: saline with Tween-80",4 of 10
same,T/C,"dose: 25.0 micrograms/kg/injection, schedule: Q01DX009 (ip), vehicle: saline",126 % of control
same,T/C,"dose: 50.0 micrograms/kg/injection, schedule: Q01DX009 (ip), vehicle: saline",128 % of control
OCCN1CCN(CC/C=C2\c3ccccc3COc3ccc(Cl)cc32)CC1,survivor count,"dose: 8.0 mg/kg/injection, schedule: Q01DX009 (ip), vehicle: saline",4 of 10
same,survivor count,"dose: 16.0 mg/kg/injection, schedule: Q01DX009 (ip), vehicle: saline",9 of 10
same,survivor count,"dose: 32.0 mg/kg/injection, schedule: Q01DX009 (ip), vehicle: saline",0 of 10
Nc1nc(=O)n(C2OC(CO)C(O)C2O)cc1F (centres undefined),survivor count,"dose: 12.5 mg/kg/injection, schedule: Q01DX009 (ip), vehicle: saline",10 of 10
same,T/C,"dose: 36.0 mg/kg/injection, schedule: Q01DX009 (ip), vehicle: saline",128 and 135 % of control
same,T/C,[2],141 % of control
same,survivor count,[2],10 of 10
same,T/C,[3],129 % of control
same,survivor count,[3],10 of 10
same,survivor count,"dose: 200.0 mg/kg/injection, schedule: Q01DX009 (ip), vehicle: saline",10 of 10
same,survivor count,"dose: 400.0 mg/kg/injection, schedule: Q01DX009 (ip), vehicle: saline",10 of 10
CS(=O)(=O)OCCC(=O)N1CCN(C(=O)CCOS(C)(=O)=O)CC1,T/C,"dose: 12.5 mg/kg/injection, schedule: Q01DX009 (ip), vehicle: saline with Tween-80",126 % of control
same,T/C,"dose: 25.0 mg/kg/injection, schedule: Q01DX009 (ip), vehicle: suspension in saline",141 % of control
same,T/C,[4],138 % of control
same,survivor count,[5],6 of 6
same,survivor count,[6],5 of 6
COC(=O)Nc1nc2ccc(C(=O)c3ccccc3)cc2[nH]1,T/C,"dose: 30.0 mg/kg/injection, schedule: Q04DX003 (ip), vehicle: saline with Tween-80",128 % of control
same,T/C,"dose: 32.0 mg/kg/injection, schedule: Q04DX003 (ip), vehicle: saline with Tween-80",127 % of control [5 of 6 alive]
same,T/C,"dose: 40.0 mg/kg/injection, schedule: Q04DX003 (ip), vehicle: saline with Tween-80",128 % of control
same,T/C,"dose: 64.0 mg/kg/injection, schedule: Q04DX003 (ip), vehicle: saline with Tween-80",132 % of control
same,survivor count,"dose: 128.0 mg/kg/injection, schedule: Q04DX003 (ip), vehicle: saline with Tween-80",5 of 6
same,survivor count,"dose: 256.0 mg/kg/injection, schedule: Q04DX003 (ip), vehicle: saline with Tween-80",1 of 6
same,T/C,"dose: 400.0 mg/kg/injection, schedule: Q04DX003 (oral), vehicle: saline with Tween-80",130 % of control
same,survivor count,"dose: 512.0 mg/kg/injection, schedule: Q04DX003 (ip), vehicle: saline with Tween-80",0 of 6
Cc1c2oc3c(C)ccc(C(=O)NCCN4CCCCC4)c3nc-2c(C(=O)NCCN2CCCCC2)c(N)c1=O,survivor count,[7],10 of 10
same,survivor count,"dose: 100.0 mg/kg/injection, schedule: Q01DX009 (ip), vehicle: Klucel (hydroxypropylcellulose) (HPC)",10 of 10
same,survivor count,[8],3 of 10
CC1C2Cc3ccc(O)cc3C1(C)CCN2CC1CC1 (centres undefined),survivor count,[8],10 of 10
same,survivor count,"dose: 400.0 mg/kg/injection, schedule: Q01DX009 (ip), vehicle: Klucel (hydroxypropylcellulose) (HPC)",5 of 10
CC(C)N(C(=O)c1ccc(C(=O)N(c2ccccc2)C(C)C)cc1)c1ccccc1,survivor count,[4],10 of 10
same,survivor count,[5],10 of 10
same,survivor count,[6],10 of 10
CC(C)[NH-].CC(C)[NH-].[Cl][Pt+2][Cl],T/C,"dose: 1.56 mg/kg/injection, schedule: Q01DX009 (ip), vehicle: dextrose",139 % of control
same,T/C,"dose: 3.12 mg/kg/injection, schedule: Q01DX009 (ip), vehicle: dextrose",125 % of control
same,T/C,"dose: 6.25 mg/kg/injection, schedule: Q01DX009 (ip), vehicle: dextrose",133 % of control
same,survivor count,"dose: 25.0 mg/kg/injection, schedule: Q01DX009 (ip), vehicle: dextrose",10 of 10
same,survivor count,"dose: 50.0 mg/kg/injection, schedule: Q01DX009 (ip), vehicle: dextrose",8 of 10
Cn1nc(N)c2ncc(-c3ccc(Cl)cc3)nc21,survivor count,"dose: 50.0 mg/kg/injection, schedule: Q01DX009 (ip), vehicle: saline with Tween-80",10 of 10
COC12C(COC(N)=O)C3=C(C(=O)C(C)=C(N)C3=O)N1CC1C2N1C (centres undefined),T/C,"dose: 8.0 mg/kg/injection, schedule: Q01DX009 (ip), vehicle: Klucel (hydroxypropylcellulose) (HPC)",134 % of control
same,survivor count,"dose: 16.0 mg/kg/injection, schedule: Q01DX009 (ip), vehicle: Klucel (hydroxypropylcellulose) (HPC)",5 of 6
CN(C)CCCc1c2ccccc2nc2ccc(Cl)cc12,survivor count,"dose: 100.0 mg/kg/injection, schedule: Q04DX003 (ip), vehicle: saline",0 of 10
same,survivor count,"dose: 200.0 mg/kg/injection, schedule: Q04DX003 (ip), vehicle: saline",0 of 10
same,survivor count,"dose: 400.0 mg/kg/injection, schedule: Q04DX003 (ip), vehicle: saline",0 of 10
CCOC(=O)Oc1c(OC)cc(C(=O)O[C@@H]2C[C@@H]3CN4CCc5c([nH]c6cc(OC)ccc56)[C@H]4C[C@@H]3[C@H](C(=O)OC)[C@H]2OC)cc1OC,survivor count,"dose: 3.12 mg/kg/injection, schedule: Q01DX009 (ip), vehicle: Klucel (hydroxypropylcellulose) (HPC)",10 of 10
same,survivor count,"dose: 12.5 mg/kg/injection, schedule: Q01DX009 (ip), vehicle: Klucel (hydroxypropylcellulose) (HPC)",9 of 10
same,survivor count,"dose: 25.0 mg/kg/injection, schedule: Q01DX009 (ip), vehicle: Klucel (hydroxypropylcellulose) (HPC)",10 of 10
same,survivor count,[7],10 of 10
NC(=S)N/N=C/c1ccc(C(F)(F)F)cn1,survivor count,"dose: 30.0 mg/kg/injection, schedule: Q01DX009 (ip), vehicle: Klucel (hydroxypropylcellulose) (HPC)",4 of 10
same,survivor count,"dose: 45.0 mg/kg/injection, schedule: Q01DX009 (ip), vehicle: Klucel (hydroxypropylcellulose) (HPC)",1 of 10
Cc1cnc2c(NC(=O)CCl)nn(C)c2n1,survivor count,[8],7 of 10
CCC[CH2][Hg][O]C(C)=O,survivor count,"dose: 2.5 mg/kg/injection, schedule: Q01DX009 (ip), vehicle: other",10 of 10
same,survivor count,"dose: 5.0 mg/kg/injection, schedule: Q01DX009 (ip), vehicle: other",10 of 10
same,survivor count,"dose: 10.0 mg/kg/injection, schedule: Q01DX009 (ip), vehicle: other",7 of 10
